Drugs:
perifosine: CCCCCCCCCCCCCCCCCCOP(=O)([O-])OC1CC[N+](C)(C)CC1 at 2 µM
YM155: COCC[n+]1c2c(n(Cc3cnccn3)c1C)C(=O)c1ccccc1C2=O at 0.002 µM
XAV939: Oc1nc(-c2ccc(C(F)(F)F)cc2)nc2c1CSCC2 at 10 µM
NVP-BEZ235: Cn1c(=O)n(-c2ccc(C(C)(C)C#N)cc2)c2c3cc(-c4cnc5ccccc5c4)ccc3ncc21 at 0.02 µM
IMD-0354: O=C(Nc1cc(C(F)(F)F)cc(C(F)(F)F)c1)c1cc(Cl)ccc1O at 0.08 µM
fludarabine: Nc1nc(F)nc2c1ncn2[C@@H]1O[C@H](CO)[C@@H](O)[C@@H]1O at 1 µM
decitabine: Nc1ncn([C@H]2C[C@H](O)[C@@H](CO)O2)c(=O)n1 at 0.5 µM

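Human melanoma cells were exposed to two drugs together for 72 h in 1,536-well plates and read by automated microscopy after fixing and staining. Each value is the cleaved-PARP-positive fraction of nuclei relative to DMSO-treated wells, in %, so that 100 equals the control and higher values mean more apoptosis. Concentrations were fixed for each drug; these are the higher of two levels. These are primary screening values without error estimates. Basal and induced levels differ widely between cell lines.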 An unselected part of the screen is shown. A dash means that no value is listed here.

Drugs,SK-MEL-2,G-361,A101D,COLO 792,RVH-421,WM115,COLO 829,IST-MEL1,WM3619,WM451Lu,501mel,MZ2-MEL,A375,A2058,SK-MEL-30
perifosine and NVP-BEZ235,155,223,179,211,604,108,163,24.5,120,197,-,-,42.6,151,38.7
YM155 and IMD-0354,722,84.2,159,174,63.6,177,110,81.5,116,255,-,168,24.3,909,183
IMD-0354 and NVP-BEZ235,60.7,181,105,41.0,447,156,30.4,133,114,208,-,42.1,68.7,126,17.3
XAV939 and decitabine,96.1,174,123,120,75.9,125,219,533,119,245,134,155,81.4,215,106
YM155 and perifosine,602,122,170,141,106,220,135,193,113,1100,-,579,49.5,541,44.2
decitabine and IMD-0354,57.6,87.0,39.1,199,139,120,201,191,113,39.8,-,-,54.1,281,36.2
NVP-BEZ235 and fludarabine,927,161,134,76.1,101,228,413,507,146,411,-,131,262,146,2290
fludarabine and IMD-0354,1410,131,124,128,125,59.5,38.9,125,81.4,90.0,-,115,460,82.7,1330
decitabine and fludarabine,1480,131,154,139,93.6,269,141,413,122,317,-,149,225,341,1950
NVP-BEZ235 and decitabine,74.3,314,75.2,92.8,57.0,304,422,183,159,63.6,-,275,81.8,323,46.6
perifosine and fludarabine,1610,106,48.0,87.1,116,31.8,36.2,72.2,225,40.7,-,230,83.0,131,1380
NVP-BEZ235 and XAV939,92.5,87.6,274,226,103,151,74.5,341,154,83.5,54.4,33.4,206,129,93.0
XAV939 and IMD-0354,142,119,193,126,51.7,56.7,118,44.6,124,43.8,73.1,29.3,158,94.6,68.1
XAV939 and perifosine,22.1,161,83.6,42.5,74.0,145,77.3,91.5,94.1,64.6,138,25.1,181,141,108
decitabine and YM155,312,239,103,275,168,335,182,93.2,118,431,-,707,204,807,209
fludarabine and YM155,2670,187,92.4,242,44.0,124,150,316,115,886,-,365,439,741,2440
XAV939 and YM155,692,214,196,115,56.4,101,91.4,130,122,181,177,1880,72.5,623,180
NVP-BEZ235 and YM155,368,258,106,294,161,269,174,125,154,337,-,435,175,579,173
XAV939 and fludarabine,1220,82.1,42.1,118,101,53.3,104,118,95.8,72.2,-,-,353,96.5,558
decitabine and perifosine,81.5,153,94.6,194,66.9,66.1,179,50.1,110,530,-,124,144,233,121
perifosine and IMD-0354,122,218,77.8,57.1,111,204,75.1,98.9,94.7,102,-,85.5,75.8,154,118

Once more, the final 2:

| Drugs | SK-MEL-2 | G-361 | A101D | COLO 792 | RVH-421 | WM115 | COLO 829 | IST-MEL1 | WM3619 | WM451Lu | 501mel | MZ2-MEL | A375 | A2058 | SK-MEL-30 |
|---|---|---|---|---|---|---|---|---|---|---|---|---|---|---|---|
| decitabine and perifosine | 81.5 | 153 | 94.6 | 194 | 66.9 | 66.1 | 179 | 50.1 | 110 | 530 | - | 124 | 144 | 233 | 121 |
| perifosine and IMD-0354 | 122 | 218 | 77.8 | 57.1 | 111 | 204 | 75.1 | 98.9 | 94.7 | 102 | - | 85.5 | 75.8 | 154 | 118 |

Data from the primary screen of doi:10.1371/journal.pone.0140310, rounded.